Assay results from the supplement of paper PMC10849652.
Some of the results follow.

Protein sequences, listed by entry. Tags and fused reporters are not part of them. Lines headed by an entry give the natural chain unless they say otherwise; changes in a name come on top.
UniProt O00244: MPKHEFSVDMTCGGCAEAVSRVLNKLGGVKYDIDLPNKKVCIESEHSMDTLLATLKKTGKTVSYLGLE
UniProt Q8IUR7, whole entry, looked up: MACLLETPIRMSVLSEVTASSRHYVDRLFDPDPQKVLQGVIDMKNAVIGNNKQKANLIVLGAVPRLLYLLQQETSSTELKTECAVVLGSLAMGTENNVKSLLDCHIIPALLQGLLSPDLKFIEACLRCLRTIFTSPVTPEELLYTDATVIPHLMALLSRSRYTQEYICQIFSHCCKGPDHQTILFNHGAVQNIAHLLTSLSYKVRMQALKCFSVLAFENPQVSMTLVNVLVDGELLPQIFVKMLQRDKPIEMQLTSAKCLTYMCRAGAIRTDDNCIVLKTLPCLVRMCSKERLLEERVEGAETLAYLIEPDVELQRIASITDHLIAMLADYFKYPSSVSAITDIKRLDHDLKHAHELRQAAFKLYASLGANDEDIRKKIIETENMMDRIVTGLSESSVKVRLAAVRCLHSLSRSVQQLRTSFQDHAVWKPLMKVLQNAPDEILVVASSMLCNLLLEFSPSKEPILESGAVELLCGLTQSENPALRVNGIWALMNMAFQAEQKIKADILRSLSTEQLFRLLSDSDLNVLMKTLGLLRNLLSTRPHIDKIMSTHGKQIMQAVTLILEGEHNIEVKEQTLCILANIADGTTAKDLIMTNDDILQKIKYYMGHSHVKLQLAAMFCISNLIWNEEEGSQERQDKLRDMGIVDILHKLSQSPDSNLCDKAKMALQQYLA
UniProt P31939: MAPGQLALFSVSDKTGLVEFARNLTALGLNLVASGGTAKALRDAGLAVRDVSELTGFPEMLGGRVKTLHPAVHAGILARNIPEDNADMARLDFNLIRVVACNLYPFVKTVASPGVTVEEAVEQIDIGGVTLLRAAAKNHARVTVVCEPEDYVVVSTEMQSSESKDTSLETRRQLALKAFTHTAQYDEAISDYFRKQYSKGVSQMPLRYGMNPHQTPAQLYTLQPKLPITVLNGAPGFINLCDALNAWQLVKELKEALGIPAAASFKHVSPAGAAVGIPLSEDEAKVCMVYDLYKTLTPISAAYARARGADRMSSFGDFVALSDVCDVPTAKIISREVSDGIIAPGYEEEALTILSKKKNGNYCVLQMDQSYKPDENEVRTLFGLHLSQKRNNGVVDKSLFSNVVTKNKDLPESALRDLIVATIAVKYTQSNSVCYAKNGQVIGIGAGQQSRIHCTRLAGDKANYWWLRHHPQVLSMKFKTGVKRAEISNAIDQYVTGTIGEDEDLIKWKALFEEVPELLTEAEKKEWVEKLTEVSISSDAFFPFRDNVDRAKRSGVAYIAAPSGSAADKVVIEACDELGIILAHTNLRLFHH
UniProt Q93050, whole entry, looked up: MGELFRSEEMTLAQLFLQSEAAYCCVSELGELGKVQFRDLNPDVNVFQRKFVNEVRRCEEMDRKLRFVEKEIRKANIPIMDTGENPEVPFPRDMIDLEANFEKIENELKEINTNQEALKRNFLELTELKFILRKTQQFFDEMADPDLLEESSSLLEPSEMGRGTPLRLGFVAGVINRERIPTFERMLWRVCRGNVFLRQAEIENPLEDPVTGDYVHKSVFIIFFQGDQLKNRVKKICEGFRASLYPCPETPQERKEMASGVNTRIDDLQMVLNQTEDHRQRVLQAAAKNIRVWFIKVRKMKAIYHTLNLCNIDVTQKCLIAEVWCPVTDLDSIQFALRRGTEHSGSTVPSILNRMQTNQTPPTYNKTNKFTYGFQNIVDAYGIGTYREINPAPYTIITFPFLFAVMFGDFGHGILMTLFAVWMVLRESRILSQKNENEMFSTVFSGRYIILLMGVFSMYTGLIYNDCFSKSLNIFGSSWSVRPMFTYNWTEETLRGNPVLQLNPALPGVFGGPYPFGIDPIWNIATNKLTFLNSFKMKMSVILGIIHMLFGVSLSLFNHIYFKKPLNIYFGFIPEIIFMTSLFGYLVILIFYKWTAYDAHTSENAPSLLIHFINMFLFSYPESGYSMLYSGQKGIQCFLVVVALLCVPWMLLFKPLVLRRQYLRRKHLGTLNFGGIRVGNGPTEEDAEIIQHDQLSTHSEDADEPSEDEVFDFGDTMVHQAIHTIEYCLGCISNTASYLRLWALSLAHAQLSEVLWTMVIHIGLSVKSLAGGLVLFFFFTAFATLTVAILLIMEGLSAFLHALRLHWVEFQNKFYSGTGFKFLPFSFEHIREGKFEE
UniProt P17544: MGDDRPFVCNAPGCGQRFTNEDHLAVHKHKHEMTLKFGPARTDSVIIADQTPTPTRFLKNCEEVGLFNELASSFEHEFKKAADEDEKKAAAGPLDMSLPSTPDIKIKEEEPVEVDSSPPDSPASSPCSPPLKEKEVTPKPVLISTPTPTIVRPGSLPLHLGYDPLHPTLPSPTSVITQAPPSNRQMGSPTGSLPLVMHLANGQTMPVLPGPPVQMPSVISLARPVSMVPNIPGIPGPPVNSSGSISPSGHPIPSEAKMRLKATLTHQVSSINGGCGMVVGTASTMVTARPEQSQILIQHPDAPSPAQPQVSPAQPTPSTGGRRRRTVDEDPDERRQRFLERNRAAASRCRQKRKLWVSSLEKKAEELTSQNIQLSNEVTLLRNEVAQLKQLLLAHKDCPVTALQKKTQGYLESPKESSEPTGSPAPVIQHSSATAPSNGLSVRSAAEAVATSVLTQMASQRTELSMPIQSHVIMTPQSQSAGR
UniProt Q8N6S5: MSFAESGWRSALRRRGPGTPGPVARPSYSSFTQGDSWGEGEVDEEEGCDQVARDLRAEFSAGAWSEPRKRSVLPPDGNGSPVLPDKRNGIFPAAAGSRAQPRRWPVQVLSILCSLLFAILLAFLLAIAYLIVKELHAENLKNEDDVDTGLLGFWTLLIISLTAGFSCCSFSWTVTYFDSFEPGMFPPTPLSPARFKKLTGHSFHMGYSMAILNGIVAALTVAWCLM
UniProt Q9H0Y0: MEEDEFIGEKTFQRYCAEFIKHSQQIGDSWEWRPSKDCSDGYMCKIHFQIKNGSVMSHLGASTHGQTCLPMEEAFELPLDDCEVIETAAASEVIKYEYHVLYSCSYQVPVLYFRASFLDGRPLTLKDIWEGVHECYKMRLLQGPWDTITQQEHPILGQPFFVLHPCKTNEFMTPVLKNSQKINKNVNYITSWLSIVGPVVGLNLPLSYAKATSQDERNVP
UniProt Q2TAZ0: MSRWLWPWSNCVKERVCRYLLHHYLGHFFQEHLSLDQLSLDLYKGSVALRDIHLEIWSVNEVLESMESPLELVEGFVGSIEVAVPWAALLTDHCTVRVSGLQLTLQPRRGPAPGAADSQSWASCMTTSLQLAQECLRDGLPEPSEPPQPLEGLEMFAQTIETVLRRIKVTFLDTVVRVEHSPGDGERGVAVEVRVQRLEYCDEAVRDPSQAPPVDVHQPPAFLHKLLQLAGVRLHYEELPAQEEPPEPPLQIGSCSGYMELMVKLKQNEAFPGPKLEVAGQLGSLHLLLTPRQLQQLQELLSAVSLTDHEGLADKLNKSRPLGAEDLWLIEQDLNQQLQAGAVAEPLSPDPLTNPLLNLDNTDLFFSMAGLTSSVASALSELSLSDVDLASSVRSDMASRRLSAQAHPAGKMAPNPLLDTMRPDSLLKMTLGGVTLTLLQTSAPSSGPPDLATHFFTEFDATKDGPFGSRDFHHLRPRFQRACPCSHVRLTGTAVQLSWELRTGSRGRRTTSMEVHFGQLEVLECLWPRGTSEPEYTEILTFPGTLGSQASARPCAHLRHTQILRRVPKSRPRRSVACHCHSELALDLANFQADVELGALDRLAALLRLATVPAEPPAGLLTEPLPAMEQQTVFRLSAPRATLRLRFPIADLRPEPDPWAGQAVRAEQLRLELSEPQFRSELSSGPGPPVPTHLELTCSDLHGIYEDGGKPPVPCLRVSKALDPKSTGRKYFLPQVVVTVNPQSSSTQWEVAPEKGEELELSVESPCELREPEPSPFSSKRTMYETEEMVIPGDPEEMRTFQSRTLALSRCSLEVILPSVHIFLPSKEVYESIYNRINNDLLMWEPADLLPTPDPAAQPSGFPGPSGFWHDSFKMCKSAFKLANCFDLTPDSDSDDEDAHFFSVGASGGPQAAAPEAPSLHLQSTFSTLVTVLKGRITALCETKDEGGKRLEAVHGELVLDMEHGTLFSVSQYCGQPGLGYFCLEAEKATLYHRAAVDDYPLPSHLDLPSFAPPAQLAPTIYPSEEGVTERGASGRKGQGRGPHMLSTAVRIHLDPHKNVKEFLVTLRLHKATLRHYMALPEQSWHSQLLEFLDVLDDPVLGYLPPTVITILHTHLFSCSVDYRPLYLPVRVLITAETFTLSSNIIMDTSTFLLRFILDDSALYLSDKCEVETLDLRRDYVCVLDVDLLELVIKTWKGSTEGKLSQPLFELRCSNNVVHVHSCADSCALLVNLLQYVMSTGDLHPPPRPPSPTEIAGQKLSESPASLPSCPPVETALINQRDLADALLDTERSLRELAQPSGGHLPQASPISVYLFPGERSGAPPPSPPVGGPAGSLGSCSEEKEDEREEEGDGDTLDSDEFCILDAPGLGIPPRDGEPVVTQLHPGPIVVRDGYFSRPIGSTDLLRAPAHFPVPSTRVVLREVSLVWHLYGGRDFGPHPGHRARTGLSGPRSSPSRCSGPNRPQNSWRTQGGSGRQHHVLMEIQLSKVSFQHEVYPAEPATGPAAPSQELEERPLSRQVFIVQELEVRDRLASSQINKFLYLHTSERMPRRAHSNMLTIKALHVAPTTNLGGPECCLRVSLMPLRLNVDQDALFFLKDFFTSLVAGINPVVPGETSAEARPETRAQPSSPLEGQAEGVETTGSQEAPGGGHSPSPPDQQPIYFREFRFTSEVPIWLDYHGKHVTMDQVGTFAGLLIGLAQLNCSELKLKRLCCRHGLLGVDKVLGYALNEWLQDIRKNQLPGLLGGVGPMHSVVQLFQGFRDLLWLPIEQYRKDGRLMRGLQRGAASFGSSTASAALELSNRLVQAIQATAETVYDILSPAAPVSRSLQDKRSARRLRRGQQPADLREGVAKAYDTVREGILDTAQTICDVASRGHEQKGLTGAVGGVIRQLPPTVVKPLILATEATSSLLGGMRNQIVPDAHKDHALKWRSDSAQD
UniProt P18847: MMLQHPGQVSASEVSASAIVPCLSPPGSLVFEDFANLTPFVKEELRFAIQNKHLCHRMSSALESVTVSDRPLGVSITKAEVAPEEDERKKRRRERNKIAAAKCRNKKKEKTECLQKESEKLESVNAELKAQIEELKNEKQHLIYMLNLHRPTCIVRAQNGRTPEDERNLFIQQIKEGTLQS
UniProt P40617: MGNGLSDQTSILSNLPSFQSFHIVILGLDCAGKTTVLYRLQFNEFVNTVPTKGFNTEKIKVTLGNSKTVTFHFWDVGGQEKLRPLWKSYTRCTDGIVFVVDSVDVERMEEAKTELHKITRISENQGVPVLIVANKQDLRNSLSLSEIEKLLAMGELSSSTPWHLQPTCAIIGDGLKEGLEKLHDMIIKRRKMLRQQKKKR
UniProt Q9NWL6: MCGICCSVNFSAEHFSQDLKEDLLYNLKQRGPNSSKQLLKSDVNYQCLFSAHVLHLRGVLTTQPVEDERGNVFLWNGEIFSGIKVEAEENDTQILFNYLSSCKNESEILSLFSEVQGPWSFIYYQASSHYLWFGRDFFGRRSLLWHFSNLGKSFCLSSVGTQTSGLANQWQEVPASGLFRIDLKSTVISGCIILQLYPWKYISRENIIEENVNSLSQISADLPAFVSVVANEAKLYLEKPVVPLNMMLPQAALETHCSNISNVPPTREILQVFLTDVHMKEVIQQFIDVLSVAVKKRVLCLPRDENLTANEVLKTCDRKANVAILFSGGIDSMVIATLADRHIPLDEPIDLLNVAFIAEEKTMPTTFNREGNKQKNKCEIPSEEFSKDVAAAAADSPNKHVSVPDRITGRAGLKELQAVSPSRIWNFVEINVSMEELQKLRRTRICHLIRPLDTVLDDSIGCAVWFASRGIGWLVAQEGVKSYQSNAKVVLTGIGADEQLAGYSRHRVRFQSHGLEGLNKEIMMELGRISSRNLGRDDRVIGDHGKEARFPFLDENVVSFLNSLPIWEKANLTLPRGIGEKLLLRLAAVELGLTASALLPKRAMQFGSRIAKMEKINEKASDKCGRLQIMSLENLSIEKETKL
UniProt Q6ZNE5, whole entry, looked up: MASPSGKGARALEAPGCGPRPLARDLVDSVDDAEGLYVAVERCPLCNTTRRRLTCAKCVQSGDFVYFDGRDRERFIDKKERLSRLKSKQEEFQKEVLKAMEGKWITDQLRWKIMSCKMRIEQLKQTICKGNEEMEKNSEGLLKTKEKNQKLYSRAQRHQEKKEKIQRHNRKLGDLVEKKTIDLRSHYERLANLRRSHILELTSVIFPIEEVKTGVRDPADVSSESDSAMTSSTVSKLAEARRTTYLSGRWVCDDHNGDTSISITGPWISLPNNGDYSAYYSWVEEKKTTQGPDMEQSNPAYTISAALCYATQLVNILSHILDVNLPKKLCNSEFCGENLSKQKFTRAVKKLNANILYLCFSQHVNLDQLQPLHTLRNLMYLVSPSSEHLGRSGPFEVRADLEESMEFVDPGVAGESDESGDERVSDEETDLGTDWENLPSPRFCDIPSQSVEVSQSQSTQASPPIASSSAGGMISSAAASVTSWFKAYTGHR

What was measured:
Assay in all cases: log2 fold change, soluble protein after heating vs DMSO (PISA); higher = thermal stabilisation; K562 cells, 10 uM, 30 min; active = over 0.2 and 3.5 SD of the protein, either way, in both replicates (recomputed)
crizotinib = compound: C[C@@H](Oc1cc(-c2cnn(C3CCNCC3)c2)cnc1N)c1c(Cl)ccc(F)c1Cl [crizotinib]
Outline: (§1)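 K562 cells at 2×10^6 cells/mL were given 10 μM compound for 30 min. Aliquots then went through 3 min of heating across 48°C-58°C, were pooled, and were extracted in PBS with 0.5% NP-40 at 4°C, and the supernatant after 21,000xg for 90 min was quantified by TMTpro 16plex LC-MS/MS with channel sums equalised. Thermal stability relative to control samples, from duplicates, is given as log2 fold change.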

gandotinib = compound: Cc1cc(Nc2cc(CN3CCOCC3)c3nc(C)c(Cc4ccc(Cl)cc4F)n3n2)n[nH]1 [gandotinib]
Outline: as §1

tozasertib = compound: Cc1cc(Nc2cc(N3CCN(C)CC3)nc(Sc3ccc(NC(=O)C4CC4)cc3)n2)n[nH]1 [tozasertib]
Outline: as §1

doramapimod = compound: Cc1ccc(-n2nc(C(C)(C)C)cc2NC(=O)Nc2ccc(OCCN3CCOCC3)c3ccccc23)cc1 [doramapimod]
Outline: as §1

ispinesib = compound: Cc1ccc(C(=O)N(CCCN)[C@@H](c2nc3cc(Cl)ccc3c(=O)n2Cc2ccccc2)C(C)C)cc1 [ispinesib]
Outline: as §1

bafetinib = compound: Cc1ccc(NC(=O)c2ccc(CN3CC[C@H](N(C)C)C3)c(C(F)(F)F)c2)cc1Nc1nccc(-c2cncnc2)n1 [bafetinib]
Outline: as §1

[1] = compound: Cc1cccc(CC(=O)N2CCc3c2ccc(-c2cn(C)c4ncnc(N)c24)c3F)n1
Outline: as §1

nilotinib = compound: Cc1cn(-c2cc(NC(=O)c3ccc(C)c(Nc4nccc(-c5cccnc5)n4)c3)cc(C(F)(F)F)c2)cn1 [nilotinib]
Outline: as §1

[2] = compound: Cc1nc(Nc2n[nH]c3c2CN(C(=O)N[C@H](CN(C)C)c2ccccc2)C3(C)C)c2sccc2n1
Outline: as §1

[3] = compound: Cc1ncc(-c2ccnc(Nc3ccc(S(C)(=O)=O)cc3)n2)n1C(C)C
Outline: as §1

[4] = compound: Cn1cc(-c2ccc3nnc(C(F)(F)c4ccc5ncccc5c4)n3n2)cn1
Outline: as §1

tipifarnib = compound: Cn1cncc1[C@@](N)(c1ccc(Cl)cc1)c1ccc2c(c1)c(-c1cccc(Cl)c1)cc(=O)n2C [tipifarnib]
Outline: as §1

mubritinib = compound: FC(F)(F)c1ccc(/C=C/c2nc(COc3ccc(CCCCn4ccnn4)cc3)co2)cc1 [mubritinib]
Outline: as §1

[5] = compound: CS(=O)(=O)c1ccc(-c2cnc(N)c(C(=O)Nc3ccccc3)n2)cc1
Outline: as §1

[6] = compound: C[C@@H]1COCCN1C2=NC(=NC(=C2)C3(CC3)S(=O)(=O)C)C4=C5C=CNC5=CC=C4
Outline: as §1

[7] = compound: C[C@H](C1=CC=C(C=C1)C(=O)NC2=C3C=CNC3=NC=C2)N
Outline: as §1

[8] = compound: Cc1cc(SCc2sc(-c3ccc(C(F)(F)F)cc3)nc2C)ccc1OCC(=O)O
Outline: as §1

dasatinib = compound: Cc1nc(Nc2ncc(C(=O)Nc3c(C)cccc3Cl)s2)cc(N2CCN(CCO)CC2)n1 [dasatinib]
Outline: as §1

[9] = compound: Cn1cc(-c2ccc3c(c2)CCN3C(=O)Cc2cccc(C(F)(F)F)c2)c2c(N)ncnc21
Outline: as §1

duvelisib = compound: C[C@H](Nc1ncnc2nc[nH]c12)c1cc2cccc(Cl)c2c(=O)n1-c1ccccc1 [duvelisib]
Outline: as §1

Measured: log2 fold change

ARPIN isoform 2 (UniProt Q7Z6K5)
inactive: crizotinib 0.127 | gandotinib -0.168 | tozasertib -0.085 | doramapimod 0.077 | ispinesib -0.055 | bafetinib -0.122 | [1] 0.235 | nilotinib 0.124 | [2] -0.27 | [3] -0.034 | [4] 0.216 | tipifarnib 0.103 | mubritinib 0.068

ASS1 (UniProt P00966)
inactive: [5] 0.033 | [6] 0.017 | [7] -0.079 | gandotinib -0.014 | [8] -0.062 | ispinesib -0.205 | bafetinib -0.113 | [1] -0.001 | nilotinib -0.017 | [2] 0.021 | dasatinib 0.013 | [3] -0.017 | [9] 0.093 | [4] 0.06 | tipifarnib 0.005 | mubritinib 0.009

ATOX1 (UniProt O00244)
inactive: [5] -0.051 | crizotinib -0.057 | [6] 0.235 | [7] -0.269 | gandotinib 0.068 | [8] -0.071 | doramapimod 0.051 | ispinesib 0.212 | bafetinib -0.02 | [1] 0.043 | nilotinib 0.047 | [2] 0.036 | dasatinib 0.161 | [3] -0.009 | [9] 0.174 | [4] -0.084 | mubritinib 0.004
active: tipifarnib -0.404

ARMC8 isoform 6 (UniProt Q8IUR7)
inactive: bafetinib -0.012 | nilotinib -0.034 | [2] -0.079 | [3] -0.052

ATP1A2 (UniProt P50993)
inactive: duvelisib 1.08 | [8] 0.915 | dasatinib -0.745

ARL5B (UniProt Q96KC2)
inactive: [5] -0.029 | [6] 0.057 | [7] -0.002 | duvelisib 0.124 | gandotinib -0.22 | tozasertib -0.021 | [8] 0.141 | bafetinib 0.083 | [1] 0.019 | nilotinib -0.012 | [2] 0.088 | dasatinib 0.11 | [3] 0.147 | [9] -0.032 | tipifarnib 0.03 | mubritinib -0.001

ATIC (UniProt P31939)
active: mubritinib 0.206
inactive: [5] 0.108 | crizotinib 0.092 | [6] 0.101 | [7] -0.083 | gandotinib 0.066 | [8] -0.015 | doramapimod -0.029 | ispinesib 0.096 | bafetinib 0.067 | [1] 0.058 | nilotinib 0.158 | [2] -0.033 | dasatinib 0.022 | [3] -0.006 | [9] 0.104 | [4] 0.048 | tipifarnib -0.047

ATP6V0A1 (UniProt Q93050)
inactive: bafetinib -0.078

ATF7 isoform 6 (UniProt P17544)
inactive: [5] -0.131 | crizotinib 0.061 | [6] 0.02 | [7] -0.088 | [8] -0.054 | doramapimod 0.158 | ispinesib 0.223 | bafetinib 0.02 | nilotinib -0.026 | [2] -0.081 | [3] -0.019 | [9] 0.055 | [4] -0.266 | tipifarnib 0 | mubritinib 0.018
active: dasatinib 0.504

ARRDC1 (UniProt Q8N5I2)
inactive: [5] 0.015 | [6] -0.097 | [7] 0.205 | gandotinib 0.1 | [8] -0.071 | ispinesib -0.082 | bafetinib 0.014 | [1] -0.035 | nilotinib -0.045 | [2] 0.065 | dasatinib -0.073 | [3] 0.079 | [9] 0 | [4] -0.087 | tipifarnib 0.011 | mubritinib -0.112

ARL6IP6 (UniProt Q8N6S5)
inactive: [5] 0.046 | crizotinib -0.016 | [6] 0.017 | [7] -0.042 | gandotinib -0.008 | [8] -0.042 | doramapimod 0.03 | ispinesib 0.175 | bafetinib -0.096 | [1] 0.024 | nilotinib -0.027 | [2] 0.019 | dasatinib 0.098 | [3] 0.036 | [9] 0.012 | [4] -0.186 | tipifarnib -0.054 | mubritinib 0.04

ATG10 (UniProt Q9H0Y0)
inactive: [6] -0.022 | gandotinib 0.103 | tozasertib -0.085 | bafetinib -0.051 | [1] 0 | nilotinib -0.177 | [2] -0.007 | [3] -0.173

ATG2A (UniProt Q2TAZ0)
inactive: crizotinib -0.223 | [6] -0.535 | gandotinib -0.212 | doramapimod 0.063 | [1] -0.098

ATF3 (UniProt P18847)
inactive: [5] 0.128 | [6] -0.094 | [7] -0.126 | duvelisib 0.036 | tozasertib -0.04 | [8] -0.076 | ispinesib -0.124 | bafetinib -0.136 | nilotinib -0.097 | [2] 0.004 | dasatinib -0.07 | [3] -0.103 | [9] -0.044 | [4] -0.019 | tipifarnib 0.108

ATP1B1 (UniProt P05026)
inactive: [5] 0.162 | crizotinib 0.11 | [7] -0.132 | duvelisib 0.109 | gandotinib -0.127 | tozasertib -0.032 | [8] -0.04 | doramapimod -0.069 | ispinesib 0.112 | bafetinib 0.037 | [1] -0.083 | nilotinib 0.144 | [2] -0.088 | dasatinib -0.03 | [3] 0.079 | [9] 0.129 | [4] 0.07 | tipifarnib -0.008 | mubritinib 0.093

ARL4A (UniProt P40617)
inactive: bafetinib 0.145 | mubritinib 0.078

Copied from the listing (2 entries):
ATG2A (UniProt Q2TAZ0)
inactive: crizotinib -0.223 | [6] -0.535 | gandotinib -0.212 | doramapimod 0.063 | [1] -0.098

ATF3 (UniProt P18847)
inactive: [5] 0.128 | [6] -0.094 | [7] -0.126 | duvelisib 0.036 | tozasertib -0.04 | [8] -0.076 | ispinesib -0.124 | bafetinib -0.136 | nilotinib -0.097 | [2] 0.004 | dasatinib -0.07 | [3] -0.103 | [9] -0.044 | [4] -0.019 | tipifarnib 0.108

More records follow:

ARSK (UniProt Q6UWY0)
inactive: crizotinib -0.155 | [6] -0.004 | [7] -0.007 | doramapimod 0.071 | bafetinib -0.021 | nilotinib 0.057 | [2] -0.073 | [3] -0.045 | [9] -0.078 | mubritinib 0.04

ASNSD1 (UniProt Q9NWL6)
inactive: [5] 0.195 | crizotinib 0.018 | [6] 0.107 | doramapimod 0.05 | bafetinib -0.004 | nilotinib -0.134 | [2] -0.139 | [3] 0.027

ATG14 (UniProt Q6ZNE5)
inactive: [5] 0.193 | bafetinib -0.04 | tipifarnib -0.225
